PMC7819943, “Rice protein-binding microarrays: a tool to detect cis-acting elements near promoter regions in rice”
The other results are listed elsewhere or left out.

These sequences were tested against T1, OsSMF1 (Oryza sativa, UniProt Q6ZLB0 1-436) (assay: protein-binding microarray (RPBM); PBS, 2% BSA, 51.3 ng/ul salmon testes DNA, 50 uM zinc acetate, 200 nM TF, 25 C, 1 h; high values mean tight binding). Conditions: protein: recombinant; tags: N-terminal polyhistidine and DsRed monomer fusion (pET32a); chain copies: 2; label: CyDye5-dUTP incorporated in the synthesized complementary strand; 3' TTTTT single-stranded linker to array surface; dsDNA, one strand shown.
T1 sequence: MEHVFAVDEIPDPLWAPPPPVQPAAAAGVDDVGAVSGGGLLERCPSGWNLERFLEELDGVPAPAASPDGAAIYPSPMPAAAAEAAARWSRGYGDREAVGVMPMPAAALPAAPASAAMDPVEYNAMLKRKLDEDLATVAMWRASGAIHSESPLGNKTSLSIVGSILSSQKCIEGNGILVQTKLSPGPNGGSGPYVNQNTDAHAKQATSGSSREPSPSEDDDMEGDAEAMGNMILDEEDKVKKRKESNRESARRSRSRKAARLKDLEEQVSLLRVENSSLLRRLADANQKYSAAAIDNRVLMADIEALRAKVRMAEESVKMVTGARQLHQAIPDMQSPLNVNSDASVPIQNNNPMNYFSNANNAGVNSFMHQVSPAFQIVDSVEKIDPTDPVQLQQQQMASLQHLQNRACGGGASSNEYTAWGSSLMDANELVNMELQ
How it was run: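 Transcription factors were made in E. coli BL21-CodonPlus as N-terminal fusions to a polyhistidine tag and DsRed, then purified on Ni–NTA. After primer extension with Cy5-dUTP and blocking with 2% BSA, a custom Agilent array was exposed for 1 h at 25 °C to 200 nM protein in PBS, 2% BSA, salmon testes DNA and 50 µM zinc acetate. Washed arrays were scanned on an Axon 4000B, and the binding signal is per-feature fluorescence intensity in arbitrary units.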

Compared with “AATTTTCAAAAGAGAAAGGTAGCTGTGTGGTCAAGTTAGCCGGAGTCACCTAGTGCAG”, “CGCCTCGCGCCGTTGCCATCGTCATCCGCATCGCCTCGCGCGGAGTCACCTAGTGCAG” is lower in binding signal: 20500 fluorescence intensity (a.u.) for the first, 4630 fluorescence intensity (a.u.) for the second.

Compared with “TATCCTAACGGTGACGTAGTACTTTTGAGCTGTCCTAGGACGGAGTCACCTAGTGCAG”, “TACAAAGACTTGACCTAGACCATATTTGAGTCACTTTGAGCGGAGTCACCTAGTGCAG” is lower in binding signal: 5940 fluorescence intensity (a.u.) for the first, 3580 fluorescence intensity (a.u.) for the second.

First: ATTAAAATTATGAAATTTTAATGATTCATTAATCTCAAGACGGAGTCACCTAGTGCAG
Second: TTTTGGTGGTTTTGATTTCGGTTTTGTCCGACGTGGCGCTCGGAGTCACCTAGTGCAG
The binding signal of the first is higher: 29200 fluorescence intensity (a.u.) for the first, 22500 fluorescence intensity (a.u.) for the second.

Compared with “CGACGCGTGCGAGCGTGCGCACCATATGTAGATCGATTGTCGGAGTCACCTAGTGCAG”, “CCGGCCCAACACCACTAACACGTTCAGCCCCAATCCCCAACGGAGTCACCTAGTGCAG” is higher in binding signal: 3580 fluorescence intensity (a.u.) for the first, 42400 fluorescence intensity (a.u.) for the second.

First: GTGATTATGATGAATAAGAGCAATGACCGGCTTCGGCCAACGGAGTCACCTAGTGCAG
Second: CCGCTCCGTGCGGAAATTGGCGGATCCACCGAAGGTGACCCGGAGTCACCTAGTGCAG
The binding signal of the first is lower: 3200 fluorescence intensity (a.u.) for the first, 21500 fluorescence intensity (a.u.) for the second.

Going from “ATCCCCAAAACTGATTAGAACACGTCGTGTATCGATGGGGCGGAGTCACCTAGTGCAG” to “ATCCTGTTGAAGTAAACTAAGTACTGAATGCTTAGAAAACCGGAGTCACCTAGTGCAG”, the binding signal rises from 4170 fluorescence intensity (a.u.) to 36000 fluorescence intensity (a.u.).

Going from “CACGAAACACCACACGTCATCGCTGCAGTAAACGCCATCACGGAGTCACCTAGTGCAG” to “TGGTGTGCACGTGTATATACACGTGAGAGCCTGTGTGCATCGGAGTCACCTAGTGCAG”, the binding signal falls from 10000 fluorescence intensity (a.u.) to 4660 fluorescence intensity (a.u.).

Compared with “AACATACCTGACACGCTCCCCGTCGATCTCCGCGCCTTCTCGGAGTCACCTAGTGCAG”, “GCCACCCTAAAATGAGTATAGTCGACTAGACGTGTGTGTGCGGAGTCACCTAGTGCAG” is higher in binding signal: 3220 fluorescence intensity (a.u.) for the first, 3560 fluorescence intensity (a.u.) for the second.

Compared with “AACTGGCGTACGTGGAAGGAACACGGCCACGATATCGTACCGGAGTCACCTAGTGCAG”, “CTGTTTGAACAAGTGCACGTACGTACTCCGCTTATTAGTTCGGAGTCACCTAGTGCAG” is higher in binding signal: 3190 fluorescence intensity (a.u.) for the first, 3730 fluorescence intensity (a.u.) for the second.

First: AGGGACGATTTTGTAATTCGATGACAAGTTGAGAGAACTTCGGAGTCACCTAGTGCAG
Second: GACTGTACACATGAAGGAACATATGTGCTGAAATACTGTACGGAGTCACCTAGTGCAG
The binding signal of the first is lower: 3680 fluorescence intensity (a.u.) for the first, 26100 fluorescence intensity (a.u.) for the second.

Going from “GGATATGGACACCTCAACGAACTGACCCGTACGCCCGCACCGGAGTCACCTAGTGCAG” to “GGCGTGCGAGTCACGTGACCCACGTGCCAAACTGCCTCTTCGGAGTCACCTAGTGCAG”, the binding signal rises from 4010 fluorescence intensity (a.u.) to 5300 fluorescence intensity (a.u.).

“ATTCGTCTGAAAATTGTGTTTCACATGCGTCATTTCTCTACGGAGTCACCTAGTGCAG” was tested, and the binding signal was 5080 fluorescence intensity (a.u.).
